In publication PMC8771836:
No constants are given. Whether binding was seen depends on the method and setting. In cells and extracts the contact can be indirect. Some binding calls cover weakened binding; strength is not graded here.

Protein sequences, listed by entry. Tags and fused reporters are not part of them.
UniProt Q9NQB0: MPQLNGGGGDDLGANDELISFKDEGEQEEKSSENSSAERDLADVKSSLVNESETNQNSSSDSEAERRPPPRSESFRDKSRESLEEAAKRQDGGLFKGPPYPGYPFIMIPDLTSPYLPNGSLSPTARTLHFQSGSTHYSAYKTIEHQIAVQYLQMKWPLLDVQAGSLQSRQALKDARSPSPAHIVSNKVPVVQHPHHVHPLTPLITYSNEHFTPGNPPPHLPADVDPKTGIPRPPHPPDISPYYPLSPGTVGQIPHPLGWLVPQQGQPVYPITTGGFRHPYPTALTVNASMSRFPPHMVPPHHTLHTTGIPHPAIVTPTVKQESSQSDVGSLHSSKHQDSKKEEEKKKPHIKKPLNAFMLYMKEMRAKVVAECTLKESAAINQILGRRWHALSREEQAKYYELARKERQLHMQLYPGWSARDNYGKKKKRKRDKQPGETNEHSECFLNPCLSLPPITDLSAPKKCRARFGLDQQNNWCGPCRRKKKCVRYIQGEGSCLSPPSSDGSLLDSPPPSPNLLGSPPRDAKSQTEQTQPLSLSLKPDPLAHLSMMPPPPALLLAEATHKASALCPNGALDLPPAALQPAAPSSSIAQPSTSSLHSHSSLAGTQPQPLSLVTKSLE

Molecular target: TCF4 (human (endogenous in NPC cells)) (UniProt Q9NQB0)
Experiment: co-IP; NP-40 lysate of NPC cells, about 1-2 mg protein per part (Input, IgG, IP); IgG or IP antibody overnight at 4 C; protein A/G magnetic beads; detection by western blotting

B1: Transducin β-like protein 1 X (protein, UniProt O60907 1-577)
chain: MTELAGASSSCCHRPAGRGAMQSVLHHFQRLRGREGGSHFINTSSPRGEAKMSITSDEVNFLVYRYLQESGFSHSAFTFGIESHISQSNINGTLVPPAALISILQKGLQYVEAEISINEDGTVFDGRPIESLSLIDAVMPDVVQTRQQAFREKLAQQQASAAAAAAAATAAATAATTTSAGVSHQNPSKNREATVNGEENRAHSVNNHAKPMEIDGEVEIPSSKATVLRGHESEVFICAWNPVSDLLASGSGDSTARIWNLNENSNGGSTQLVLRHCIREGGHDVPSNKDVTSLDWNTNGTLLATGSYDGFARIWTEDGNLASTLGQHKGPIFALKWNRKGNYILSAGVDKTTIIWDAHTGEAKQQFPFHSAPALDVDWQNNTTFASCSTDMCIHVCRLGCDRPVKTFQGHTNEVNAIKWDPSGMLLASCSDDMTLKIWSMKQEVCIHDLQAHNKEIYTIKWSPTGPATSNPNSNIMLASASFDSTVRLWDIERGVCTHTLTKHQEPVYSVAFSPDGKYLASGSFDKCVHIWNTQSGNLVHSYRGTGGIFEVCWNARGDKVGASASDGSVCVLDLRK
  binding: binds
